The results in this text go back to article PMC2841626.

By UniProt entry, the sequences of proteins in these tests, tags left out.
UniProt Q9QR71: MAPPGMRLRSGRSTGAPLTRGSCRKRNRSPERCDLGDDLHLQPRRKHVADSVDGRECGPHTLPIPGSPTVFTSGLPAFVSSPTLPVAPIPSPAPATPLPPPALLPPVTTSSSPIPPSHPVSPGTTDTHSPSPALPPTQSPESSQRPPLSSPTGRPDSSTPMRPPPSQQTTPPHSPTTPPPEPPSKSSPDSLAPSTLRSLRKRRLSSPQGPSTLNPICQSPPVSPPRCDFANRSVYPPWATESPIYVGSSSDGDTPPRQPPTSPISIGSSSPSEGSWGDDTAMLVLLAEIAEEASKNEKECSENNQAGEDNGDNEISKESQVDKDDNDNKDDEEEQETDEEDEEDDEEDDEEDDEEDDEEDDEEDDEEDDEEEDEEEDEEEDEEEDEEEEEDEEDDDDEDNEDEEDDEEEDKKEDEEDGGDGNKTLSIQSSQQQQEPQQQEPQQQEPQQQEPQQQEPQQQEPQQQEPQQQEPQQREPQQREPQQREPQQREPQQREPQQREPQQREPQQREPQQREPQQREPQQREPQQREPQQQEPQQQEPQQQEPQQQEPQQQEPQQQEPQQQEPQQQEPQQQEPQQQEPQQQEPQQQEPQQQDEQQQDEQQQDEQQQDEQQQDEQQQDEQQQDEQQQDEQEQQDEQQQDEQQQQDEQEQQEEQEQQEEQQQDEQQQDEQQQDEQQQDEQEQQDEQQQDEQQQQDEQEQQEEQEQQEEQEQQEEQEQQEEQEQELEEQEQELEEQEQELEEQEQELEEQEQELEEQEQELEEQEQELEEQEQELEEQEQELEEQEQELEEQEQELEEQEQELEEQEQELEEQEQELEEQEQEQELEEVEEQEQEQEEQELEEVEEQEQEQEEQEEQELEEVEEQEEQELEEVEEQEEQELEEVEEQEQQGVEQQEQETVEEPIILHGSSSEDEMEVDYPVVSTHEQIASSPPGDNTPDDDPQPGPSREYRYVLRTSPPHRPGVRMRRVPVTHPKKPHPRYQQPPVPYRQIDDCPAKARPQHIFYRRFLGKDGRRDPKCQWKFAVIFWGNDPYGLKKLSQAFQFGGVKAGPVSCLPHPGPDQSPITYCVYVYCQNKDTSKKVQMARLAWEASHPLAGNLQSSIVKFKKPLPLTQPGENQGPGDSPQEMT
UniProt P06748: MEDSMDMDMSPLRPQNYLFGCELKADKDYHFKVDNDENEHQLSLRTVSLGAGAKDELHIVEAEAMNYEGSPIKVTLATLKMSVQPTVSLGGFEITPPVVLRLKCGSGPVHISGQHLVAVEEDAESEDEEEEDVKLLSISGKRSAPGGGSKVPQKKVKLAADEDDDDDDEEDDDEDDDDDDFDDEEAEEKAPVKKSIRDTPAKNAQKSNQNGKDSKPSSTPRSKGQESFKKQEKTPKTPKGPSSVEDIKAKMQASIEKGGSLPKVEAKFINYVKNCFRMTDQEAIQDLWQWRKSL

These are yes or no findings as the source states them, for the method shown. Binding seen in cells or lysates may run through a third protein. Some results given as binding are weak or reduced against the parent protein; the word gives no strength.

The target of the test is LANA stably expressed in U2OS cells (Kaposi's sarcoma herpesvirus (KSHV)) (UniProt Q9QR71). The test is described as follows: co-IP; whole cell extracts of U2OS stably expressing LANA, transfected with Myc-v-cyclin or empty vector (48 hours), with or without eGFP-NPM constructs; immunoprecipitation with anti-LANA or anti-NPM, immunoblotting with anti-NPM, anti-GFP, anti-LANA.

As to “eGFP-tagged wild-type NPM (from UniProt P06748 1-294)”, the binding result is on record as “binds”.
